From patent US20080113908A1, “Use of CRF receptor agonists for the treatment or Prophylaxis of diseases, for example Neurodegenerative diseases” (SmithKline Beecham plc, priority 2000, published 2008)
For part of these data: For at least one compound, name, drawing or mass did not settle the structure. Some results were stated once for a whole list of compounds, not compound by compound.

Tests used:
[1] = target: cerebellar granule neurones; assay type: cell-based, rat; conditions: LY 294002 75 μM, 48 h; read-out: neuroprotective potency
Description: Cerebellar granule neurones were used in the examples to test neuroprotection by CRF receptor agonists. Cerebellar granule neurones (CGNs) undergo apoptosis during the first few weeks of postnatal life, and in culture require mildly depolarising concentrations of KCl (25 mM) for their survival and maturation (S. R: D'Mello et al., Proc. Natl. Acad. Sci. USA 90, 10989-10993, 1993). The growth signal provided by KCl depends upon activation of the phosphatidylinositol 3-kinase (PI 3-kinase) pathway, and pharmacological inhibition of PI 3-kinase in differentiated granule neurones leads to apoptotic death in the CGNs (T. M. Miller et al., J. Biol. Chem., 272, 9847-9853, 1997). Thus, cultured CGNs represent a suitable model to study mechanisms of programmed cell death, and to identify putative neuroprotective signalling pathways.
Assay 1: Cerebellar granule neurones prepared from postnatal day 8 Sprague Dawley rat pups were used for experiments on death induced by inhibition of PI 3-kinase. General culture methods are described in S. D. Skaper et al. in Methods in Neurosciences, Vol. 2 (Conn P. M., ed), pp. 17-33. Academic Press, San Diego, 1990. […] Forty-eight hours later neuronal survival was quantified by a colorimetric reaction MTT. […]

[2] = target: T1, CRF-R1 (Homo sapiens, UniProt P34998); conditions: read-out: EC50 cAMP accumulation, CRF-R1; stably transfected CHO cells; cited from earlier work
T1 sequence (P34998 24-415): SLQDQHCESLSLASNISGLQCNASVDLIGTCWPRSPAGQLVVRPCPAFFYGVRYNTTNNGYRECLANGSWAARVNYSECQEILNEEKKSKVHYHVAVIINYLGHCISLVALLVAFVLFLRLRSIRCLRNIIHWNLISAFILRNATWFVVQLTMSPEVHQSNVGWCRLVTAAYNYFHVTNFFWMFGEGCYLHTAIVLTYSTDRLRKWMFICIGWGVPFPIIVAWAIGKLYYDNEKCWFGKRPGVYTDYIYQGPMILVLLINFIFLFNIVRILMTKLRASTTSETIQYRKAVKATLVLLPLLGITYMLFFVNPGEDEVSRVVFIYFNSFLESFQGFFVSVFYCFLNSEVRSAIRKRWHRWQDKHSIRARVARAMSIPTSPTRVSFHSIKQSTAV

[3] = target: T1, CRF-R1; conditions: read-out: binding to CRF-R1; cited from earlier work

Compound: CC[C@H](C)[C@H](NC(=O)[C@@H](NC(=O)[C@H](CC(=O)O)NC(=O)[C@H](CC(C)C)NC(=O)[C@H](CC(C)C)NC(=O)[C@H](CC(C)C)NC(=O)[C@H](CCCNC(=N)N)NC(=O)[C@H](CC(N)=O)NC(=O)[C@H](CC(N)=O)NC(=O)[C@H](C)NC(=O)[C@H](C)NC(=O)[C@H](CCC(N)=O)NC(=O)[C@H](CCC(N)=O)NC(=O)[C@H](CCCCN)NC(=O)[C@H](CCC(=O)O)NC(=O)[C@H](CCCCN)NC(=O)[C@H](CCC(=O)O)NC(=O)[C@H](CCC(N)=O)NC(=O)[C@H](CCCCN)NC(=O)[C@H](CCC(=O)O)NC(=O)[C@@H](NC(=O)[C@H](CCC(=O)O)NC(=O)[C@@H](NC(=O)[C@H](CCSC)NC(=O)[C@H](CCCCN)NC(=O)[C@H](CCCNC(=N)N)NC(=O)[C@H](CC(C)C)NC(=O)[C@H](CC(C)C)NC(=O)[C@H](CCC(=O)O)NC(=O)[C@H](CC(C)C)NC(=O)[C@H](CO)NC(=O)[C@H](CC(C)C)NC(=O)[C@H](CC(=O)O)NC(=O)[C@@H](NC(=O)[C@H](CO)NC(=O)[C@@H](NC(=O)[C@@H]1CCCN1C(=O)[C@@H]1CCCN1C(=O)CNC(=O)[C@@H]1CCC(=O)N1)[C@@H](C)CC)[C@@H](C)CC)[C@@H](C)CC)[C@@H](C)CC)[C@@H](C)O)C(N)=O [Sauvagine]
- EC50 [1]: < 1000 nM

Compound: H-SQEPPISLDLTFHLLREVLEMTKADQLAQQAHNNRKLLDIA-NH2 [CRF]
- EC50 [2]: 0.26 nM
- Ki [3]: 0.95 nM
